No constants are given. Whether binding was seen depends on the method and setting. In cells and extracts the contact can be indirect. Some binding calls cover weakened binding; strength is not graded here.
Biological target: T1, SIN3 transcription regulator family member A (UniProt Q60520)
T1 sequence: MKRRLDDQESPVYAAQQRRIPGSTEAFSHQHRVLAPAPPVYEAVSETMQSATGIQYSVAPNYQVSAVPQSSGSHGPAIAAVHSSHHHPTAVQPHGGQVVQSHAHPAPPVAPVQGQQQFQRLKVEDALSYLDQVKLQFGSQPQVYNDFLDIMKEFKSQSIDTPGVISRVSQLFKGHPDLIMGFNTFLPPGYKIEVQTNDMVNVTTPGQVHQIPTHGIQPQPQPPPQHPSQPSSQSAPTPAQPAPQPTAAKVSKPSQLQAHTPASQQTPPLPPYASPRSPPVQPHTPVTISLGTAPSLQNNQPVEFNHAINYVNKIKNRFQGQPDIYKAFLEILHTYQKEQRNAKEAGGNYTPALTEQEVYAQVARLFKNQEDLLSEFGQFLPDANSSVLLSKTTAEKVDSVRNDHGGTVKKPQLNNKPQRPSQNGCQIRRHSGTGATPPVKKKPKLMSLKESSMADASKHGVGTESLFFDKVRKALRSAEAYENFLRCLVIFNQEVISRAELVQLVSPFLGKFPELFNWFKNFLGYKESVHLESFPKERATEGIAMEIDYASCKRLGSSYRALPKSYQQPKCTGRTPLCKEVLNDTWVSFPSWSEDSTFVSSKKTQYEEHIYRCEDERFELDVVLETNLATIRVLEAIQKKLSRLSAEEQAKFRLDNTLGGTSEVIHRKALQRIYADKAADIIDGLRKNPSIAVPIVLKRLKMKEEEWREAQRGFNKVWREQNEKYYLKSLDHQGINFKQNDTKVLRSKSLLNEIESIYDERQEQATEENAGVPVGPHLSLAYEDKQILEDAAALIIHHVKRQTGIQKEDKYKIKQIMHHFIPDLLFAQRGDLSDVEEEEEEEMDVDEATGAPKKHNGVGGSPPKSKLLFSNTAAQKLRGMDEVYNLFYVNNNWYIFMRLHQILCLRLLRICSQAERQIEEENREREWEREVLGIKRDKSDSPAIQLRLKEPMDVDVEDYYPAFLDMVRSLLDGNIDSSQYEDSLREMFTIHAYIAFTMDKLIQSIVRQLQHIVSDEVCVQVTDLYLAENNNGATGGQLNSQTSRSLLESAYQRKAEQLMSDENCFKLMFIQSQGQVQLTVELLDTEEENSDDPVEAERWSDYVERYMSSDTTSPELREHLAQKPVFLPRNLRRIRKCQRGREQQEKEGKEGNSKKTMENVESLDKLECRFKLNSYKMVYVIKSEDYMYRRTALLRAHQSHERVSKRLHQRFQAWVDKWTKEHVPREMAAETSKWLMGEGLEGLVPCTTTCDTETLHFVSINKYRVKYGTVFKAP
Assay: co-IP; no method section for this experiment; the author contributions say that co-immunoprecipitations were performed; cells, bait and conditions not told (Supplementary Fig. 5E)

Chains of the proteins cited; added tags and fusions are not shown.
UniProt Q04207: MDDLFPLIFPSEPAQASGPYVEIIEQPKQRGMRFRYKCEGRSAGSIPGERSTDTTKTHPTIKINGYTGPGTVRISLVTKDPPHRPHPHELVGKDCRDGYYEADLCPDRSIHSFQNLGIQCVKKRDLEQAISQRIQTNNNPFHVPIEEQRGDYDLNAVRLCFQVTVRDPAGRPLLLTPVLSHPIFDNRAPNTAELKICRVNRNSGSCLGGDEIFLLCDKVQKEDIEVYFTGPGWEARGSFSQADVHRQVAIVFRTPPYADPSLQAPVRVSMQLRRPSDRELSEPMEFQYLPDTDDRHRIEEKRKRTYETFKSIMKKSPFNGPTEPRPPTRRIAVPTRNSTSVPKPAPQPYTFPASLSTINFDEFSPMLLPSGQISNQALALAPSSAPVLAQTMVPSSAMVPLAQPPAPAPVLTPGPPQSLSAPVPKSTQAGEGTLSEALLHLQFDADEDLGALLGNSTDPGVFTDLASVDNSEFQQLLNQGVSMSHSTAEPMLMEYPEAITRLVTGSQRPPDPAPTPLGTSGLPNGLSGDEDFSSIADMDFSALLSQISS

With p65 (from UniProt Q04207 1-549) the binding was “binds”.
